Experimental data taken from paper PMC10293810.

Chains of the proteins cited; added tags and fusions are not shown. Residues count along the entry.
UniProt Q91XB0, 1-242 R174A/K175A: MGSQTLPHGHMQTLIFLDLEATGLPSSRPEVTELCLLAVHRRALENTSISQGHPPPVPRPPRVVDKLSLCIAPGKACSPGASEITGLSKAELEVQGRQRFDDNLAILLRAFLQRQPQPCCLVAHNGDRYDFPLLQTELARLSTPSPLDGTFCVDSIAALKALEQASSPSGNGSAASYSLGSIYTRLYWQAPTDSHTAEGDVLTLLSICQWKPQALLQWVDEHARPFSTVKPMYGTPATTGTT
UniProt Q91XB0, 1-242: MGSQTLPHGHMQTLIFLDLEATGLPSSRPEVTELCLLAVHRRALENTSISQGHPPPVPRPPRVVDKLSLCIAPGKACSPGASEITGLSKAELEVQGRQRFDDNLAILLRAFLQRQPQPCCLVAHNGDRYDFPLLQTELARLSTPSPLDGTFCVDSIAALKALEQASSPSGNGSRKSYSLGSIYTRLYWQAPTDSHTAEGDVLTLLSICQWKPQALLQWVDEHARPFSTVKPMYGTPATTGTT

Tests used:
[1] = target: T1, FBF-2 RNA-binding domain (Caenorhabditis elegans) (UniProt Q09312); experiment: competition with a labelled probe; conditions: nonbinding carrier C3; recombinant protein; residues 164-575
T1 sequence (looked up): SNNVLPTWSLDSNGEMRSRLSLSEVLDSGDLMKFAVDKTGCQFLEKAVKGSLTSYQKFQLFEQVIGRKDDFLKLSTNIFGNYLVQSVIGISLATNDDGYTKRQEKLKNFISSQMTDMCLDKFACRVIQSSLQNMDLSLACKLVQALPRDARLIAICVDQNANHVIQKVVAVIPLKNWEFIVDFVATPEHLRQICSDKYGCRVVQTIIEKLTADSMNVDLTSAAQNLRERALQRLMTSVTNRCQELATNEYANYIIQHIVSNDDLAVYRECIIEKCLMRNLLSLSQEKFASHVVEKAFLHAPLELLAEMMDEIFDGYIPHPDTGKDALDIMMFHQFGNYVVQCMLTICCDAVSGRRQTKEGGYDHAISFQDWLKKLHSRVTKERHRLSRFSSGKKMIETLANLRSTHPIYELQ

[2] = target: T2, MS2 coat protein V75E,A81G V76E,A82G (MS2 bacteriophage) (UniProt P03612); experiment: competition with a labelled probe; conditions: nonbinding carrier C3; recombinant protein
T2 sequence (looked up, limits assumed): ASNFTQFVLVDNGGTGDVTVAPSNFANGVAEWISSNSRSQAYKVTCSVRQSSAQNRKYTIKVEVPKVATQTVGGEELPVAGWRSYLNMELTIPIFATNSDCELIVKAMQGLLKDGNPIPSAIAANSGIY

[3] = target: TREX1 R174A,K175A (murine) (UniProt Q91XB0); experiment: fluorescence polarization; conditions: 25 C, apparent Kd; FP with 5 nM ligand at 25 C (some FPCD at 4 C); buffer for MS2-CP (BB6): 100 mM Tris pH 7.5, 10 mM MgCl2, 80 mM KCl, 0.1 mg/mL BSA; recombinant protein; residues 1-242; protein details: MBP fusion, cleaved by protease (similar to WT); label: 5' 6-FAM on both strands
[4] = target: TREX1 catalytic core (murine) (UniProt Q91XB0); experiment: fluorescence polarization; conditions: higher salt; FP with 5 nM ligand at 25 C (some FPCD at 4 C); buffer for MS2-CP (BB6): 100 mM Tris pH 7.5, 10 mM MgCl2, 80 mM KCl, 0.1 mg/mL BSA; recombinant protein; residues 1-242; protein details: MBP fusion, cleaved by protease; label: 5' 6-FAM on both strands

Sequence | binding result [1] | binding result [2] | Kd [3] | binding result [4]
AAAAAAAAAA [r(A)10 (C3)] | no binding | no binding |  | 
GAAGTGCCCGTGACGCGCGCGACGCCAGCCGACGAAGGCGGGACCCAGAGCGCGCGCCGT (double strand) [ds-[F]d(N)60] |  |  | 130 nM | binds more weakly

For some of these results: A negative result means that nothing was seen under these conditions. For some of these results: At least one verdict was read from the data and is not stated in words by the source. For some of these results: Protein sequences can lack the tags named with them. For some of these results: For at least one entry, the source does not settle the construct or the ends of the probe. For some of these results: A weaker result is weaker than the reference pair of the same experiment.
